One series deals with MiHA-coding transcripts. Put plainly: Tissue distribution of MiHA gene expression (27 tissues, FPKM; bone marrow over skin ratio). More on the design: species or system human. Particulars: relative BM/skin expression of the MiHA-coding transcripts. From the text: (§1) Determination of the tissue distribution of gene expression. Allogeneic T cells can react against a multitude of host MiHAs expressed elsewhere than in hematopoietic/lymphoid organs and induce GVHD. Therefore, to avoid GVHD MiHA expression should not be ubiquitous. Unfortunately, current technical limitations prevent from experimentally assessing MiHA expression in these tissues by mass spectrometry. As an alternative, it was previously shown that MAPs preferentially derive from abundant transcripts (Granados et al. Blood 2012). Thus, the level of expression of transcripts coding for MiHAs could be used as an indicator of MiHAs expression. […] Genes were then classified as “ubiquitous” if expressed in 27 tissues with a “Fragments Per Kilobase of exons per Million mapped reads (FPKM)” >10 or as “not ubiquitous” if not expressed with a FPKM>10 in all 27 tissues. […] Reads Per Kilobase per Million mapped reads (RPKM) values of MiHA-coding genes in AML samples were obtained from the TCGA Data Portal version 3.1.6. […] Mean values were calculated using the 128 AMLs, expect for the Y chromosome-encoded UTY gene, for which only 65 male samples were considered. […]

For series [1], the system named is primary acute myeloid leukemia (AML) samples. Put plainly: Expression of MiHA-coding genes in AML samples (TCGA RNA-Seq, RPKM). Set-up: species or system human. Particulars: mean MiHA gene expression in primary AML samples obtained from TCGA.
Source text: as §1

For some assays here: What was measured is the transcript of the gene that encodes the chain shown.

In the case of MCPH1-1^R/I (EEINLQRNI), the BM/skin ratio with MiHA-coding transcripts is listed as 2.09. Besides, in series [1], the “AMLs (RPKM)” value is 6.17 RPKM.

The record behind these values is patent publication US20190359681A1, “NOVEL MINOR HISTOCOMPATIBILITY ANTIGENS AND USES THEREOF” (UNIVERSITÉ DE MONTRÉAL, priority 2015, published 2019).
